PubChem BioAssay AID1224829 – NIAID – 2016
The deposit covers about 3,800 reagents; shown is a random part of them. 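Calls cover raised and lowered translocation; gene median uses one vendor's three siRNAs; qiagen siRNAs acted more weakly than ambion siRNAs.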 The numbers tell different reagents against one gene apart.

Test: 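Follow-up of TLR4-NF-kappaB regulators using six separate siRNAs for each gene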 (follow-up of hits)
Cell system: mouse RAW264.7 G9 macrophage reporter cells
Reagents: single siRNA against mouse genes, 100 nM
Time to read-out: 2 days of siRNA knock-down, then 40 min of LPS before fixing
Conditions: LPS (Salmonella minnesota R595) at 10 ng/ml
Measured: 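Imaging of GFP-p65 after 40 min of LPS; nuclear over perinuclear ring intensity ratio, scaled to plate median and non-targeting control wells, given as z-score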
Direction: p65 translocation z-score and gene median z-score, per vendor: higher = more nuclear NF-kappaB p65 after LPS
Call rule: 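An siRNA is called active when the mean z-score of its two replicates is above 2 or below -2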
Meaning of the calls: active = changed p65 translocation (either direction); inactive = no clear change

no.	gene symbol	reagent	siRNA vendor or control pool	p65 translocation z-score, replicate mean	p65 translocation z-score, replicate 1	p65 translocation z-score, replicate 2	gene median z-score, per vendor	activity call
1	Naa50 (N(alpha)-acetyltransferase 50, NatE catalytic subunit)	1	ambion single siRNA	-2.91	-1.77	-4.06	-0.949	active
2	Naa50 (N(alpha)-acetyltransferase 50, NatE catalytic subunit)	2	ambion single siRNA	-0.949	-0.949		-0.949	inactive
3	Naa50 (N(alpha)-acetyltransferase 50, NatE catalytic subunit)	3	ambion single siRNA	2.22	3.35	1.09	-0.949	active
4	Naa50 (N(alpha)-acetyltransferase 50, NatE catalytic subunit)	4	qiagen single siRNA	0.436	0.483	0.388	0.0438	inactive
5	Naa50 (N(alpha)-acetyltransferase 50, NatE catalytic subunit)	5	qiagen single siRNA	-2.26	0.0438	-4.56	0.0438	active
6	Naa50 (N(alpha)-acetyltransferase 50, NatE catalytic subunit)	6	qiagen single siRNA	-1.92	-1.92		0.0438	inactive
7	Tnfrsf8 (tumor necrosis factor receptor superfamily, member 8)	1	ambion single siRNA	1.82	2.14	1.5	-0.571	inactive
8	Tnfrsf8 (tumor necrosis factor receptor superfamily, member 8)	2	ambion single siRNA	-0.571	-0.38	-0.762	-0.571	inactive
9	Tnfrsf8 (tumor necrosis factor receptor superfamily, member 8)	3	ambion single siRNA	-3.75	-3.4	-4.11	-0.571	active
10	Tnfrsf8 (tumor necrosis factor receptor superfamily, member 8)	4	qiagen single siRNA	0.336	0.521	0.151	-2.1	inactive
11	Tnfrsf8 (tumor necrosis factor receptor superfamily, member 8)	5	qiagen single siRNA	-2.18	-1	-3.37	-2.1	active
12	Tnfrsf8 (tumor necrosis factor receptor superfamily, member 8)	6	qiagen single siRNA	-3.76	-3.19	-4.33	-2.1	active
13	Supt5 (suppressor of Ty 5, DSIF elongation factor subunit)	1	ambion single siRNA	-2.53	-3.53	-1.53	-3.78	active
14	Supt5 (suppressor of Ty 5, DSIF elongation factor subunit)	2	ambion single siRNA	-4.19	-4.49	-3.88	-3.78	active
15	Supt5 (suppressor of Ty 5, DSIF elongation factor subunit)	3	ambion single siRNA	-4.41	-5.13	-3.68	-3.78	active
16	Supt5 (suppressor of Ty 5, DSIF elongation factor subunit)	4	qiagen single siRNA	-2.98	-2.98		-2	active
17	Supt5 (suppressor of Ty 5, DSIF elongation factor subunit)	5	qiagen single siRNA	-2.84	-0.635	-5.05	-2	active
18	Supt5 (suppressor of Ty 5, DSIF elongation factor subunit)	6	qiagen single siRNA	-1.94	-1.88	-2	-2	inactive
19	Rxrb (retinoid X receptor beta)	1	ambion single siRNA	-1.69	-2.73	-0.641	-0.961	inactive
20	Rxrb (retinoid X receptor beta)	2	ambion single siRNA	-1.74	-1.28	-2.19	-0.961	inactive
21	Rxrb (retinoid X receptor beta)	3	ambion single siRNA	0.201	1.01	-0.607	-0.961	inactive
22	Rxrb (retinoid X receptor beta)	4	qiagen single siRNA	-0.734	-0.743	-0.725	-0.743	inactive
23	Rxrb (retinoid X receptor beta)	5	qiagen single siRNA	-2.46	-2.29	-2.63	-0.743	active
24	Rxrb (retinoid X receptor beta)	6	qiagen single siRNA	0.287	0.287		-0.743	inactive
25	Cpt1b (carnitine palmitoyltransferase 1b, muscle)	1	ambion single siRNA	0.627	1.61	-0.356	-2.49	inactive
26	Cpt1b (carnitine palmitoyltransferase 1b, muscle)	2	ambion single siRNA	-2.49	-0.959	-4.03	-2.49	active
27	Cpt1b (carnitine palmitoyltransferase 1b, muscle)	3	ambion single siRNA	-5.7	-4.42	-6.97	-2.49	active
28	Cpt1b (carnitine palmitoyltransferase 1b, muscle)	4	qiagen single siRNA	0.648	-0.587	1.88	0.19	inactive
29	Cpt1b (carnitine palmitoyltransferase 1b, muscle)	5	qiagen single siRNA	0.645	0.989	0.301	0.19	inactive
30	Cpt1b (carnitine palmitoyltransferase 1b, muscle)	6	qiagen single siRNA	-0.0514	-0.182	0.0788	0.19	inactive

Next part, starting with the last 9 of the part before.
no.	gene symbol	reagent	siRNA vendor or control pool	p65 translocation z-score, replicate mean	p65 translocation z-score, replicate 1	p65 translocation z-score, replicate 2	gene median z-score, per vendor	activity call
22	Rxrb (retinoid X receptor beta)	4	qiagen single siRNA	-0.734	-0.743	-0.725	-0.743	inactive
23	Rxrb (retinoid X receptor beta)	5	qiagen single siRNA	-2.46	-2.29	-2.63	-0.743	active
24	Rxrb (retinoid X receptor beta)	6	qiagen single siRNA	0.287	0.287		-0.743	inactive
25	Cpt1b (carnitine palmitoyltransferase 1b, muscle)	1	ambion single siRNA	0.627	1.61	-0.356	-2.49	inactive
26	Cpt1b (carnitine palmitoyltransferase 1b, muscle)	2	ambion single siRNA	-2.49	-0.959	-4.03	-2.49	active
27	Cpt1b (carnitine palmitoyltransferase 1b, muscle)	3	ambion single siRNA	-5.7	-4.42	-6.97	-2.49	active
28	Cpt1b (carnitine palmitoyltransferase 1b, muscle)	4	qiagen single siRNA	0.648	-0.587	1.88	0.19	inactive
29	Cpt1b (carnitine palmitoyltransferase 1b, muscle)	5	qiagen single siRNA	0.645	0.989	0.301	0.19	inactive
30	Cpt1b (carnitine palmitoyltransferase 1b, muscle)	6	qiagen single siRNA	-0.0514	-0.182	0.0788	0.19	inactive
31	Atg12 (autophagy related 12)	1	ambion single siRNA	-0.824	-0.0126	-1.64	-0.824	inactive
32	Atg12 (autophagy related 12)	2	ambion single siRNA	-2.46	-2.43	-2.49	-0.824	active
33	Atg12 (autophagy related 12)	3	ambion single siRNA	0.437	0.0164	0.858	-0.824	inactive
34	Atg12 (autophagy related 12)	4	qiagen single siRNA	1.88	0.473	3.29	-1.11	inactive
35	Atg12 (autophagy related 12)	5	qiagen single siRNA	-1.11	-1.01	-1.21	-1.11	inactive
36	Atg12 (autophagy related 12)	6	qiagen single siRNA	-2.14	-1.55	-2.73	-1.11	active
37	Or4g17 (olfactory receptor family 4 subfamily G member 17)	1	ambion single siRNA	-2.59	-2.59		-2.16	active
38	Or4g17 (olfactory receptor family 4 subfamily G member 17)	2	ambion single siRNA	0.693	0.693		-2.16	inactive
39	Or4g17 (olfactory receptor family 4 subfamily G member 17)	3	ambion single siRNA	-2.44	-3.13	-1.74	-2.16	active
40	Or4g17 (olfactory receptor family 4 subfamily G member 17)	4	qiagen single siRNA	2.17	0.841	3.5	-1.24	active
41	Or4g17 (olfactory receptor family 4 subfamily G member 17)	5	qiagen single siRNA	-2.02	-2.31	-1.74	-1.24	active
42	Or4g17 (olfactory receptor family 4 subfamily G member 17)	6	qiagen single siRNA	-2.44	-0.751	-4.13	-1.24	active
43	Trim9 (tripartite motif-containing 9)	1	ambion single siRNA	-0.54	-0.931	-0.149	2.19	inactive
44	Trim9 (tripartite motif-containing 9)	2	ambion single siRNA	5.85	7.16	4.54	2.19	active
45	Trim9 (tripartite motif-containing 9)	3	ambion single siRNA				2.19	inactive
46	Trim9 (tripartite motif-containing 9)	4	qiagen single siRNA	1.55	1.61	1.5	-2.43	inactive
47	Trim9 (tripartite motif-containing 9)	5	qiagen single siRNA	-2.81	-2.51	-3.11	-2.43	active
48	Trim9 (tripartite motif-containing 9)	6	qiagen single siRNA	-3.03	-2.35	-3.71	-2.43	active
49	Bmpr2 (bone morphogenetic protein receptor type 2)	1	ambion single siRNA	-1.39	-2.89	0.112	-0.987	inactive
50	Bmpr2 (bone morphogenetic protein receptor type 2)	2	ambion single siRNA	-0.238	0.41	-0.887	-0.987	inactive
51	Bmpr2 (bone morphogenetic protein receptor type 2)	3	ambion single siRNA	-2.23	-1.09	-3.37	-0.987	active
52	Bmpr2 (bone morphogenetic protein receptor type 2)	4	qiagen single siRNA	1.8	0.39	3.21	-0.796	inactive
53	Bmpr2 (bone morphogenetic protein receptor type 2)	5	qiagen single siRNA	-0.844	-0.796	-0.892	-0.796	inactive
54	Bmpr2 (bone morphogenetic protein receptor type 2)	6	qiagen single siRNA	-1.95	-1.95		-0.796	inactive
55	Alpl (alkaline phosphatase, liver/bone/kidney)	1	ambion single siRNA	-1.8	-2.27	-1.32	-1.8	inactive
56	Alpl (alkaline phosphatase, liver/bone/kidney)	2	ambion single siRNA	2.3	3.63	0.975	-1.8	active
57	Alpl (alkaline phosphatase, liver/bone/kidney)	3	ambion single siRNA	-3.03	-2.59	-3.48	-1.8	active
58	Alpl (alkaline phosphatase, liver/bone/kidney)	4	qiagen single siRNA	0.0664	-0.456	0.589	0.487	inactive
59	Alpl (alkaline phosphatase, liver/bone/kidney)	5	qiagen single siRNA	0.72	0.562	0.879	0.487	inactive
60	Alpl (alkaline phosphatase, liver/bone/kidney)	6	qiagen single siRNA	0.0272	-0.358	0.413	0.487	inactive
61	Nle1 (notchless homolog 1)	1	ambion single siRNA	-1.48	-2.26	-0.694	-2.26	inactive
62	Nle1 (notchless homolog 1)	2	ambion single siRNA	-1.49	-1.49		-2.26	inactive
63	Nle1 (notchless homolog 1)	3	ambion single siRNA	-3.04	-2.32	-3.77	-2.26	active
64	Nle1 (notchless homolog 1)	4	qiagen single siRNA	1.5	1.54	1.46	-2.79	inactive
65	Nle1 (notchless homolog 1)	5	qiagen single siRNA	-3.66	-2.67	-4.65	-2.79	active
66	Nle1 (notchless homolog 1)	6	qiagen single siRNA	-3.72	-2.9	-4.54	-2.79	active
